From paper PMC10319725, “A mechanical-coupling mechanism in OSCA/TMEM63 channel mechanosensitivity” (Nature Communications, 2023)
Results are given in words; binding and its absence hold for the method and conditions named. For some assays here: Sequences can lack the tags named with a protein. Each block holds one binder with its values, some of them ahead of it.

Columns and labels:
hTMEM63A-CGFP (human) = hTMEM63A-CGFP (human) (UniProt O94886); experiment: SEC; fluorescence-detection SEC (FSEC) of detergent-solubilised Expi293F cells (1% LMNG, 0.1% CHS; also DDM or GDN), Superose 6 increase 5/150 in TBS (20 mM Tris pH 8.0, 150 mM NaCl) with 10 uM LMNG, GFP fluorescence detected
[1] = molecular target: hTMEM63A in detergent (human) (UniProt O94886); experiment: cryo-EM structure; purified protein in detergent (extracted with LMNG-CHS, SEC in TBS with 0.03% digitonin); both purified

binding (hTMEM63A-CGFP (human)): no binding
B1: hTMEM63A-CGFP (protein, UniProt O94886 1-807)
chain: MMDSPFLELWQSKAVSIREQLGLGDRPNDSYCYNSAKNSTVLQGVTFGGIPTVLLIDVSCFLFLILVFSIIRRRFWDYGRIALVSEADSESRFQRLSSTSSSGQQDFENELGCCPWLTAIFRLHDDQILEWCGEDAIHYLSFQRHIIFLLVVVSFLSLCVILPVNLSGDLLDKDPYSFGRTTIANLQTDNDLLWLHTIFAVIYLFLTVGFMRHHTQSIKYKEENLVRRTLFITGLPRDARKETVESHFRDAYPTCEVVDVQLCYNVAKLIYLCKEKKKTEKSLTYYTNLQVKTGQRTLINPKPCGQFCCCEVLGCEWEDAISYYTRMKDRLLERITEEERHVQDQPLGMAFVTFQEKSMATYILKDFNACKCQSLQCKGEPQPSSHSRELYTSKWTVTFAADPEDICWKNLSIQGLRWWLQWLGINFTLFLGLFFLTTPSIILSTMDKFNVTKPIHALNNPIISQFFPTLLLWSFSALLPSIVYYSTLLESHWTKSGENQIMMTKVYIFLIFMVLILPSLGLTSLDFFFRWLFDKTSSEASIRLECVFLPDQGAFFVNYVIASAFIGNGMELLRLPGLILYTFRMIMAKTAADRRNVKQNQAFQYEFGAMYAWMLCVFTVIVAYSITCPIIAPFGLIYILLKHMVDRHNLYFVYLPAKLEKGIHFAAVNQALAAPILCLFWLYFFSFLRLGMKAPATLFTFLVLLLTILVCLAHTCFGCFKHLSPLNYKTEEPASDKGSEAEAHMPPPFTPYVPRILNGLASERTALSPQQQQQQTYGAIHNISGTIPGQCLAQSATGSVAAAPQEA

binding [1]: no binding
B2: hTMEM63A in detergent (protein, UniProt O94886 1-807)
chain: B1 chain
